Measured data: PubChem BioAssay AID1159584 (Peter MacCallum Cancer Centre, 2016)

- Assay: 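Knock-downs that harm CDH1-null cells more than parental MCF10A cells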 (primary screen)
- Cells: human MCF10A breast epithelial cells, parental and CDH1-null
- Reagents: siRNA against human genes
- Measurement: 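ATP luminescence (CellTiter-Glo) viability per line relative to mean mock wells over all plates, and the ratio of CDH1-null to parental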
- Direction: CDH1-null / parental viability ratio: higher = CDH1-null cells survive relatively better than parental; CDH1-null viability vs mock: higher = more viable CDH1-null cells
The whole screen tested about 18,000 reagents; below is a random part of them. Not all columns of the deposit are shown. The record does not give: the amount of reagent, the time to read-out.

gene | CDH1-null / parental viability ratio | CDH1-null viability vs mock (fraction of mock)
GAGE6 (G antigen 6) | 1.27 | 0.8
CRYGS (crystallin gamma S) | 0.73 | 0.66
SMARCE1 (SWI/SNF related BAF chromatin remodeling complex subunit E1) | 1.07 | 0.6
PRAMEF8 (PRAME family member 8) | 1.04 | 0.94
TMED1 (transmembrane p24 trafficking protein 1) | 0.98 | 0.8
CYP2A13 (cytochrome P450 family 2 subfamily A member 13) | 0.73 | 0.56
YPEL2 (yippee like 2) | 1.13 | 1.06
PLEKHA8P1 (pleckstrin homology domain containing A8 pseudogene 1) | 0.86 | 0.76
CLEC16A (C-type lectin domain containing 16A) | 1.2 | 1.16
GZMH (granzyme H) | 1.3 | 0.91
ATP10B (ATPase phospholipid transporting 10B (putative)) | 1.15 | 1.08
IGFBPL1 (insulin like growth factor binding protein like 1) | 0.87 | 0.68
FAM194C (family with sequence similarity 194 member C) | 1.04 | 0.57
SBSPON (somatomedin B and thrombospondin type 1 domain containing) | 1.06 | 0.72
TBC1D24 (TBC1 domain family member 24) | 1.19 | 0.99
CPXM1 (carboxypeptidase X, M14 family member 1) | 1.37 | 0.82
APOO (apolipoprotein O) | 1.08 | 0.84
TGFBR3 (transforming growth factor beta receptor 3) | 1.02 | 0.92
COX6A1 (cytochrome c oxidase subunit 6A1) | 0.62 | 0.4
ONECUT3 (one cut homeobox 3) | 1.3 | 0.56
WBP4 (WW domain binding protein 4) | 0.85 | 0.58
RGS7BP (regulator of G protein signaling 7 binding protein) | 0.79 | 0.66
LAMB3 (laminin subunit beta 3) | 0.85 | 0.46
LRRC19 (leucine rich repeat containing 19) | 0.98 | 0.9
CDH13 (cadherin 13) | 1.35 | 1.13
CD300LF (CD300 molecule like family member f) | 1.05 | 0.88
PSG2 (pregnancy specific beta-1-glycoprotein 2) | 1.18 | 0.97
B3GALT4 (beta-1,3-galactosyltransferase 4) | 0.91 | 0.69
TRIP4 (thyroid hormone receptor interactor 4) | 0.86 | 0.78
MMEL1 (membrane metalloendopeptidase like 1) | 1.05 | 0.92

Next part; the last 4 above are carried over.
gene | CDH1-null / parental viability ratio | CDH1-null viability vs mock (fraction of mock)
PSG2 (pregnancy specific beta-1-glycoprotein 2) | 1.18 | 0.97
B3GALT4 (beta-1,3-galactosyltransferase 4) | 0.91 | 0.69
TRIP4 (thyroid hormone receptor interactor 4) | 0.86 | 0.78
MMEL1 (membrane metalloendopeptidase like 1) | 1.05 | 0.92
KCNJ5 (potassium inwardly rectifying channel subfamily J member 5) | 1.26 | 1.01
SNX17 (sorting nexin 17) | 1.13 | 0.85
BTC (betacellulin) | 1.06 | 0.82
RAB36 (RAB36, member RAS oncogene family) | 0.8 | 0.74
GPR156 (G protein-coupled receptor 156) | 1.33 | 0.85
CCL15 (C-C motif chemokine ligand 15) | 0.76 | 0.6
CCDC142 (coiled-coil domain containing 142) | 0.64 | 0.34
EIF3I (eukaryotic translation initiation factor 3 subunit I) | 0.94 | 0.32
TRIM6 (tripartite motif containing 6) | 0.86 | 0.69
OR10X1 (olfactory receptor family 10 subfamily X member 1) | 0.89 | 0.7
ANKRD1 (ankyrin repeat domain 1) | 0.77 | 0.73
CDC6 (cell division cycle 6) | 1.27 | 0.98
SDHC (succinate dehydrogenase complex subunit C) | 1 | 0.76
TMEM119 (transmembrane protein 119) | 1.07 | 0.79
TGFB1I1 (transforming growth factor beta 1 induced transcript 1) | 1.1 | 0.86
OR4D1 (olfactory receptor family 4 subfamily D member 1) | 0.96 | 0.5
